{"source": "PubChem BioAssay AID1259308 (NCATS, 2017)", "screen": "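Genes whose loss raises luciferase production in HEK293 cells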 (primary screen)", "cell system": "human HEK293 embryonic kidney cells stably expressing firefly luciferase (HEK-CMV-Luc2-Hygro)", "reagent": "single siRNA against human genes, 0.8 pmol siRNA per well", "timing": "72 h", "read-out": "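Luciferase light (ONE-Glo) measured on one replicate plate set and viability (CellTiter-Glo) on the other, scaled to a negative control siRNA, with robust z-scores and luciferase per cell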", "reading the numbers": "total luciferase, z-score: higher = more reporter protein produced", "call rule": "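An siRNA counts as active if its total luciferase robust z-score exceeds 3; genes with two or more such siRNAs out of three were retested with fresh siRNAs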", "calls": "active = raised luciferase; inactive = no rise", "note": "The deposit covers about 59,000 reagents; this is a part drawn at random. Over the whole deposit, about 1,510 (2.6%) got an active call. 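Calls use total luciferase alone and ignore viability, so some active siRNAs may act by altering cell number.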 The numbers tell different reagents against one gene apart. Further read-outs or replicates are left out here."}
The opening 2 entries, to show the layout:
{"target gene": "ZNF142 (GeneID 7701)", "reagent no.": 1, "total luciferase, z-score": -0.123, "Call": "inactive"}
{"target gene": "ZNF142 (GeneID 7701)", "reagent no.": 2, "total luciferase, z-score": 1.93, "Call": "inactive"}

Results, from the first entry:
{"target gene": "ZNF142 (GeneID 7701)", "reagent no.": 1, "total luciferase, z-score": -0.123, "Call": "inactive"}
{"target gene": "ZNF142 (GeneID 7701)", "reagent no.": 2, "total luciferase, z-score": 1.93, "Call": "inactive"}
{"target gene": "ZNF142 (GeneID 7701)", "reagent no.": 3, "total luciferase, z-score": -0.287, "Call": "inactive"}
{"target gene": "FH (GeneID 2271)", "reagent no.": 1, "total luciferase, z-score": 0.401, "Call": "inactive"}
{"target gene": "FH (GeneID 2271)", "reagent no.": 2, "total luciferase, z-score": -1.36, "Call": "inactive"}
{"target gene": "FH (GeneID 2271)", "reagent no.": 3, "total luciferase, z-score": 0.691, "Call": "inactive"}
{"target gene": "C17orf67 (GeneID 339210)", "reagent no.": 1, "total luciferase, z-score": -3.03, "Call": "inactive"}
{"target gene": "C17orf67 (GeneID 339210)", "reagent no.": 2, "total luciferase, z-score": -1.23, "Call": "inactive"}
{"target gene": "C17orf67 (GeneID 339210)", "reagent no.": 3, "total luciferase, z-score": 0.0182, "Call": "inactive"}
{"target gene": "S100A5 (GeneID 6276)", "reagent no.": 1, "total luciferase, z-score": -0.684, "Call": "inactive"}
{"target gene": "S100A5 (GeneID 6276)", "reagent no.": 2, "total luciferase, z-score": 2.57, "Call": "inactive"}
{"target gene": "S100A5 (GeneID 6276)", "reagent no.": 3, "total luciferase, z-score": 1.06, "Call": "inactive"}
